Laboratory results reported in paper doi:10.1101/2024.01.04.574163.

The chains behind the UniProt entries cited, without tags or fusion partners.
UniProt P40958: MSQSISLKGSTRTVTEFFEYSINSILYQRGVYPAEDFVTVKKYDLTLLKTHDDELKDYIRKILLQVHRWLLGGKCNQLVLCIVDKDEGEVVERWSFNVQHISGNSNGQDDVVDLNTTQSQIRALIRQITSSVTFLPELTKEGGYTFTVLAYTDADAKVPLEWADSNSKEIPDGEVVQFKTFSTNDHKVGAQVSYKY
UniProt P40460: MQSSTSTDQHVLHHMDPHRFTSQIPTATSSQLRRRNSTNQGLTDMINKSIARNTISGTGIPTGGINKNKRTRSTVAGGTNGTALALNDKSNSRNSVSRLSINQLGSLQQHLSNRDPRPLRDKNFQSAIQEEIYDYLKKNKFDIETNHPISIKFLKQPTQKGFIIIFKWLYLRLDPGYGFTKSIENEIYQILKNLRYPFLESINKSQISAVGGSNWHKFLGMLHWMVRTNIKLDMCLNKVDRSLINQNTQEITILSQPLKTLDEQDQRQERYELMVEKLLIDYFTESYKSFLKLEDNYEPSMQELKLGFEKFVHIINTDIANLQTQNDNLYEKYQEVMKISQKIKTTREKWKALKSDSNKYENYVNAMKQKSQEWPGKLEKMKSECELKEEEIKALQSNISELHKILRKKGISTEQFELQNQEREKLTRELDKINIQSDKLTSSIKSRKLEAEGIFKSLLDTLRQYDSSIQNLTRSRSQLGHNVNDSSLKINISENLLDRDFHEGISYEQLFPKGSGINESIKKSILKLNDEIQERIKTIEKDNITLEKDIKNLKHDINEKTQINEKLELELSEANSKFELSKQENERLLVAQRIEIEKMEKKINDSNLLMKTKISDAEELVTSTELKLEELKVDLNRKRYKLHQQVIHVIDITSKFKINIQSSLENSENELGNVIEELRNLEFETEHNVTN
UniProt P38903: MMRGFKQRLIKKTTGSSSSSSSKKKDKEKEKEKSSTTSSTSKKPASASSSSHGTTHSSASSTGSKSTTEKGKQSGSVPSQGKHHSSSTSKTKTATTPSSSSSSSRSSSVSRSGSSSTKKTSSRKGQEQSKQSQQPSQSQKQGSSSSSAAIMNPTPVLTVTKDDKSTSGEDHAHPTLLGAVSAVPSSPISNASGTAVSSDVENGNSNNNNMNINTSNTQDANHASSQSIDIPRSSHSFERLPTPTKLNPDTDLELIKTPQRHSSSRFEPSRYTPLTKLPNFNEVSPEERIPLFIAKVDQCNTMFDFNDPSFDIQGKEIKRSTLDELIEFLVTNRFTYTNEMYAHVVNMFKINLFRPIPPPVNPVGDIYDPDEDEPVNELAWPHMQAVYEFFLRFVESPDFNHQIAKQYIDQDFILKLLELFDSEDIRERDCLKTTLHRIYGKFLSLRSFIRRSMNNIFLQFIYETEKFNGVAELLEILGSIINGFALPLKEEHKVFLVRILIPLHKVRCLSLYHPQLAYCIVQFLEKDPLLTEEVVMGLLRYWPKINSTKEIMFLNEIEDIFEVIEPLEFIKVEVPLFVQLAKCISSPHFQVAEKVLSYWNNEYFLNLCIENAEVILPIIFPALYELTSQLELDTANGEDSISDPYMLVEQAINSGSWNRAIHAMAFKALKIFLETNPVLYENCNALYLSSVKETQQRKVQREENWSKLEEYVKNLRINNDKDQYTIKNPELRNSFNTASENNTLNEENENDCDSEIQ
UniProt P09733: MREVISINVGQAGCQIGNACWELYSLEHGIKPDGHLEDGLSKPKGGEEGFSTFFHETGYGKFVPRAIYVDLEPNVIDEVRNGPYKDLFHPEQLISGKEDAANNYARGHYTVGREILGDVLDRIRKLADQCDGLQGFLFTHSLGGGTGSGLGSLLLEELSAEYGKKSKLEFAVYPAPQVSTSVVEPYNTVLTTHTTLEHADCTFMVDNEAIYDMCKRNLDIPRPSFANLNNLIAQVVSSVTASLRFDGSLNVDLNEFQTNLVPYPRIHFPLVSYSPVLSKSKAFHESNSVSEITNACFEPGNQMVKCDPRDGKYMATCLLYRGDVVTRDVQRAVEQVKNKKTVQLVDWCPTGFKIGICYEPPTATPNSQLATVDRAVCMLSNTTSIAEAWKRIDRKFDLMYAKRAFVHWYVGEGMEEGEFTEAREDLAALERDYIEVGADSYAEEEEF
UniProt P02557: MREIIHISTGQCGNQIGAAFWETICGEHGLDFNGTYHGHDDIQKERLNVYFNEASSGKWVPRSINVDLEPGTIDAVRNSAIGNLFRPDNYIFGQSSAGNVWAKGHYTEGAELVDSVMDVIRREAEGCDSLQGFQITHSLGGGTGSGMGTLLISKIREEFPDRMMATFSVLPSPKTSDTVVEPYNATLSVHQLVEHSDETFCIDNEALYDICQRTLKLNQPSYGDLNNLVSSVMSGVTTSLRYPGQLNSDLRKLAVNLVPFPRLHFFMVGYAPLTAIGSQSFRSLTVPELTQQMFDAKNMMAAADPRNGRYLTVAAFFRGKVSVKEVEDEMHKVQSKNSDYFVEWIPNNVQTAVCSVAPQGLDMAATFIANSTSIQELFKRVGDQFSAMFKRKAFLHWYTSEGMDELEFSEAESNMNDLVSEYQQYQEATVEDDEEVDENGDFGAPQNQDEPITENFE
UniProt P09734: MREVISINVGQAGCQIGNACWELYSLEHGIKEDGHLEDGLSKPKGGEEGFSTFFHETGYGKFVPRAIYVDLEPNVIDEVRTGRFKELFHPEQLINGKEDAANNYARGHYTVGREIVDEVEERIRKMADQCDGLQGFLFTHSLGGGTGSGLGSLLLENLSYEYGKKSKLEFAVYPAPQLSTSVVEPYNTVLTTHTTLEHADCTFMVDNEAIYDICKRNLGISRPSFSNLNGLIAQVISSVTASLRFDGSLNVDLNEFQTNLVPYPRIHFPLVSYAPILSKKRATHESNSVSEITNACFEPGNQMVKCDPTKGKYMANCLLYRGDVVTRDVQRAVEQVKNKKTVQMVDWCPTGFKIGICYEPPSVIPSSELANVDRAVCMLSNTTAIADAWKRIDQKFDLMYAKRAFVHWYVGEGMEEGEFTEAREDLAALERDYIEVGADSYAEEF

T1: Mad3-FLAG (S. cerevisiae (endogenous in SK1 strains)) (UniProt P47074)
T1 sequence: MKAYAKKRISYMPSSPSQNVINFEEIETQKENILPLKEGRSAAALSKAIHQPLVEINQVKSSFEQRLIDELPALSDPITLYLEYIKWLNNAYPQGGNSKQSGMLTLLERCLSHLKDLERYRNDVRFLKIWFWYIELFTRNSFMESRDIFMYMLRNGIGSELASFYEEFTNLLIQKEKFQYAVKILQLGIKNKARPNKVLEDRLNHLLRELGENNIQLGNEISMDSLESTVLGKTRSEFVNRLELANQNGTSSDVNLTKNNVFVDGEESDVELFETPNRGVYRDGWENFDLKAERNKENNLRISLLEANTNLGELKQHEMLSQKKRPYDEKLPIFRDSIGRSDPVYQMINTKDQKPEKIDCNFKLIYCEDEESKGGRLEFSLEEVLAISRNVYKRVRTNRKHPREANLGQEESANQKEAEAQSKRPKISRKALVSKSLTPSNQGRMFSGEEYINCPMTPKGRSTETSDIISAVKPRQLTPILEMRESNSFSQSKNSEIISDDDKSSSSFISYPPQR


Experiments:
Experiment in all cases: affinity purification with mass spectrometry
[1] = biological target: T1, Mad3-FLAG (S. cerevisiae (endogenous in SK1 strains))
[2] = biological target: Mad2-FLAG (S. cerevisiae (endogenous in SK1 strains)) (UniProt P40958)
[3] = biological target: T1, Mad3-FLAG (S. cerevisiae (endogenous in SK1 strains)); remark: listed apart in the source

| binding [1] | binding [2] | binding [3] | Molecule |
| --- | --- | --- | --- |
| no binding | binds | – | Ndc80 (from UniProt P40460 1-691) |
| binds | – | – | Rts1, a subunit of PP2A-B56 (from UniProt P38903 1-757) |
| binds | – | – | Tub1 (from UniProt P09733 1-447) |
| binds | – | – | Tub2 (from UniProt P02557 1-457) |
| binds | – | – | Tub3 (from UniProt P09734 1-445) |
| binds | – | – | Ptc3 (enzyme, UniProt P34221 1-468) MGQILSNPIIDKEHHSGTDCLTAFGLCAMQGWRMSMEDAHIVEPNLLAESDEEHLAFYGIFDGHGGSSVAEFCGSKMISILKKQESFKSGMLEQCLIDTFLATDVELLKDEKLKDDHSGCTATVILVSQLKKLLICANSGDSRTVLSTGGNSKAMSFDHKPTLLSEKSRIVAADGFVEMDRVNGNLALSRAIGDFEFKSNTKLGPHEQVVTCVPDIICHNLNYDEDEFVILACDGIWDCLTSQECVDLVHYGISQGNMTLSDISSRIVDVCCSPTTEGSGIGCDNMSISIVALLKENESESQWFERMRSKNYNIQTSFVQRRKSIFDFHDFSDDDNEVFAITTKKLQDRLNRSKDNDDMEIDDLDTELGSSATPSKLSGEDRTGPIDLFSLEALLEAGIQIRQRPSSDSDGNTSYFHGASLSDMLASLSNAAAGETEPNDADDNDDNDGEENGKNENAKKGSKIEEIE |
| binds | – | binds | Ptc7 (enzyme, UniProt P38797 40-343) YQSNNSHGDAYSSGSQSGPFTYKTAVAFQPKDRDDLIYQKLKDSIRSPTGEDNYFVTSNNVHDIFAGVADGVGGWAEHGYDSSAISRELCKKMDEISTALAENSSKETLLTPKKIIGAAYAKIRDEKVVKVGGTTAIVAHFPSNGKLEVANLGDSWCGVFRDSKLVFQTKFQTVGFNAPYQLSIIPEEMLKEAERRGSKYILNTPRDADEYSFQLKKKDIIILATDGVTDNIATDDIELFLKDNAARTNDELQLLSQKFVDNVVSLSKDPNYPSVFAQEISKLTGKNYSGGKEDDITVVVVRVD |
| binds | – | – | Bub3 (protein, UniProt P26449 1-341) MQIVQIEQAPKDYISDIKIIPSKSLLLITSWDGSLTVYKFDIQAKNVDLLQSLRYKHPLLCCNFIDNTDLQIYVGTVQGEILKVDLIGSPSFQALTNNEANLGICRICKYGDDKLIAASWDGLIEVIDPRNYGDGVIAVKNLNSNNTKVKNKIFTMDTNSSRLIVGMNNSQVQWFRLPLCEDDNGTIEESGLKYQIRDVALLPKEQEGYACSSIDGRVAVEFFDDQGDDYNSSKRFAFRCHRLNLKDTNLAYPVNSIEFSPRHKFLYTAGSDGIISCWNLQTRKKIKNFAKFNEDSVVKIACSDNILCLATSDDTFKTNAAIDQTIELNASSIYIIFDYEN |

Where two headings read alike, the source gives them in different places. No constants are given. Whether binding was seen depends on the method and setting. Binding seen in cells or lysates may run through a third protein. These calls come from enrichment with a bait or labelling near it, and not all partners need be listed. For some of these results: No binding means not detected with the bait. For some of these results: Where a sequence is shown, tags or fusion partners need not be part of it.
